Results are given in words; binding and its absence hold for the method and conditions named.
How the values were obtained:
[1] = target: human TANGO1 cargo-recognition (MOTH) domain, residues 21-131 (human) (UniProt Q5JRA6); assay: condition: 10-fold molar excess of peptide over 193 µM protein; NMR titration; 1H-15N HSQC of [U-15N]-enriched domain (160-215 µM) without and with 10-fold molar excess of peptide (24-fold for MIA with SOS1 peptide); 298 K; PBS pH 7.4 (hsTANGO1(21-131): 25 mM HEPES pH 7.4, 150 mM NaCl, 1% CHAPS); both purified
[2] = target: human TANGO1 cargo-recognition (MOTH) domain, residues 21-131 (human) (UniProt Q5JRA6); assay: condition: 10-fold molar excess of peptide over 215 µM protein; NMR titration; 1H-15N HSQC of [U-15N]-enriched domain (160-215 µM) without and with 10-fold molar excess of peptide (24-fold for MIA with SOS1 peptide); 298 K; PBS pH 7.4 (hsTANGO1(21-131): 25 mM HEPES pH 7.4, 150 mM NaCl, 1% CHAPS); both purified

Protein sequences, listed by entry. Tags and fused reporters are not part of them. Lines headed by an entry give the natural chain unless they say otherwise; changes in a name come on top.
UniProt Q5JRA6: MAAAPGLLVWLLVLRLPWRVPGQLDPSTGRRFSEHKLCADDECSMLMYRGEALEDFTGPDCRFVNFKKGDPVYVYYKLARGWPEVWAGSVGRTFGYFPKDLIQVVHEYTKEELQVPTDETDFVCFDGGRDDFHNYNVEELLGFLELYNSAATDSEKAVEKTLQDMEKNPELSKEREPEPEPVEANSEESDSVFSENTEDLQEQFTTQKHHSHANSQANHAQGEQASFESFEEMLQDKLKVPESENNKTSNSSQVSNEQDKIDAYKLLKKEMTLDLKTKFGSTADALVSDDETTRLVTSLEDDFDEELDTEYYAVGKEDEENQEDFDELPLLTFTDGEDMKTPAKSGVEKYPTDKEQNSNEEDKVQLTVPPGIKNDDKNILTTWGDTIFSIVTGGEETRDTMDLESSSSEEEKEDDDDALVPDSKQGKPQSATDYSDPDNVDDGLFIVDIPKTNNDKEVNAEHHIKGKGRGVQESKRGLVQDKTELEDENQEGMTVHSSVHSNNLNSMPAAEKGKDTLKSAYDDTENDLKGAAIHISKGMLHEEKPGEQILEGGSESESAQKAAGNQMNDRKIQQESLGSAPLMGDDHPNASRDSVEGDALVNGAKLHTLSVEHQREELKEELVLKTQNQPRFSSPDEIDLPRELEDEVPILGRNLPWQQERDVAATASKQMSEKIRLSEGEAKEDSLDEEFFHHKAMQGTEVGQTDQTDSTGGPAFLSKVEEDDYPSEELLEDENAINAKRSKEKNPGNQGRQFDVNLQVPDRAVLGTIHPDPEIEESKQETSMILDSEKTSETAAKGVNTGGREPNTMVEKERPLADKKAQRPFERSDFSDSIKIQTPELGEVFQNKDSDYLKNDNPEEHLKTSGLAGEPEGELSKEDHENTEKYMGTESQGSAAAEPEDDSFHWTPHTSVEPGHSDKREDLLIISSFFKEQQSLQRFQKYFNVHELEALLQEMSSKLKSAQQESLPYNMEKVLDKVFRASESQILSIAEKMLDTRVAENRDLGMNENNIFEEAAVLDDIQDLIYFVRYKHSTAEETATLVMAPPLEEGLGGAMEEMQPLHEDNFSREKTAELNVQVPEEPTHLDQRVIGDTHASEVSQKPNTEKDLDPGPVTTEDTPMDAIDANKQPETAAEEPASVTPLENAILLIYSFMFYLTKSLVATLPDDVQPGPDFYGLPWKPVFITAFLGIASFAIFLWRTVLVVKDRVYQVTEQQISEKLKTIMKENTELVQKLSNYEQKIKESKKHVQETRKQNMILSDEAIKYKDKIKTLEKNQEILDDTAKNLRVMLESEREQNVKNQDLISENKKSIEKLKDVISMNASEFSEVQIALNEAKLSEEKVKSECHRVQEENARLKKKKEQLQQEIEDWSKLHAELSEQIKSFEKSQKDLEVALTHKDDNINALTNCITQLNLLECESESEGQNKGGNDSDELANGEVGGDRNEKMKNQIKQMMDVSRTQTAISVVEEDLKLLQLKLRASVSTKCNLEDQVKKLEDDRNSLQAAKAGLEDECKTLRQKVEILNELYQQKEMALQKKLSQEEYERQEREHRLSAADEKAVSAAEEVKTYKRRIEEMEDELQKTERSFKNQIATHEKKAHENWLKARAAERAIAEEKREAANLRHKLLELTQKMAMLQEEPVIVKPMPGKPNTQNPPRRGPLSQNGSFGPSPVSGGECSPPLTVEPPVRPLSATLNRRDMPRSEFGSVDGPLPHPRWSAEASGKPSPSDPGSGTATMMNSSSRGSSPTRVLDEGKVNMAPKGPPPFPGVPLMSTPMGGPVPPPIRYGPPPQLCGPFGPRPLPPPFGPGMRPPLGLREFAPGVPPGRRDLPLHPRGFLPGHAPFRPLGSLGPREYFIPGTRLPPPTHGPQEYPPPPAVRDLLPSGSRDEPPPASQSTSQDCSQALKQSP
UniProt P27986: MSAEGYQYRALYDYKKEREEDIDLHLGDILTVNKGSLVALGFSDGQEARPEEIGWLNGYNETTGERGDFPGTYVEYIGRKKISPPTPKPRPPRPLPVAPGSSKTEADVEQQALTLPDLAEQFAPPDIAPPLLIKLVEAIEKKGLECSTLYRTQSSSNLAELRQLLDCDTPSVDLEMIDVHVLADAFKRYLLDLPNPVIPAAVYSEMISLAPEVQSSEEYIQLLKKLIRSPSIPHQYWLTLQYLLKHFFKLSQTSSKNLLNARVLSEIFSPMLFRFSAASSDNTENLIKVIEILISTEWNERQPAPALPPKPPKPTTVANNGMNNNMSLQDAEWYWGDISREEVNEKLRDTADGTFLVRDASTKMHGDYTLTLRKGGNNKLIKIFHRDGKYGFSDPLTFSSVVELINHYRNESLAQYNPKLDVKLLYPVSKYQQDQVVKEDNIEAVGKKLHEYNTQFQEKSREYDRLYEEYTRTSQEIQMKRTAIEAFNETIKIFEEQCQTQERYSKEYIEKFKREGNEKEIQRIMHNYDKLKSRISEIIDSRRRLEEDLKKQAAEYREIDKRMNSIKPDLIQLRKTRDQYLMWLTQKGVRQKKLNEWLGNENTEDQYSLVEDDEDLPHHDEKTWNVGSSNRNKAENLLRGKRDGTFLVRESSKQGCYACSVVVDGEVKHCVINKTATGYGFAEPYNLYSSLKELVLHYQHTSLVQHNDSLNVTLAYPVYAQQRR

Substance | binding [1] | binding [2]
SOS1 (1149-1158), class II PPII helix peptide (from UniProt Q07889 1149-1158) | no binding | –
p85α(91-104), class I PPII helix peptide (from UniProt P27986 91-104) | – | no binding
